# Measurements reported in US20230346796A1 (priority 2010, published 2023).
# Test system: healthy volunteers and patients undergoing a colonoscopy
# Assay: CNS 7056-fentanyl interaction MOAA/S pharmacodynamic analysis
# Conditions: CNS7056FEN01AS
compound,measurement,value
"COC(=O)CC[C@@H]1N=C(c2ccccn2)c2cc(Br)ccc2-n2c(C)cnc21 [CNS 7056, 3-[(4S)-8-bromo-1-methyl-6-(2-pyridinyl)-4H-imidazo[1,2-a][1,4]benzodiazepin-4-yl] propionic methyl ester]","EC50, eta IIV (RSE%)",36.33 (16.0) % and 36.17 (16.0) %
same,"Hill Coefficient, eta IIV (RSE%)",55.55 (24.3) % and 55.67 (24.3) %

# Some entries of the source have several records that differ or are many. They are shown here; other results are not. There may be further records. The values listed for one entry differ, and nothing given here explains why; dose, time, organism, isomer or construct need not be as stated for each record.
